Data published in PMC3744072.
No constants are given. Whether binding was seen depends on the method and setting. Some entries that bind do so weakly or less than the wild type.

Amino acid sequences for entries named in this document (tags omitted). A change or cut given only in a name is not applied to a line headed by its entry. Chains listed by the source or under a name are the forms on record and can include a tag or linker.
COMP DelD469 (mutant, mouse knock-in) (Q9R0G6, form named): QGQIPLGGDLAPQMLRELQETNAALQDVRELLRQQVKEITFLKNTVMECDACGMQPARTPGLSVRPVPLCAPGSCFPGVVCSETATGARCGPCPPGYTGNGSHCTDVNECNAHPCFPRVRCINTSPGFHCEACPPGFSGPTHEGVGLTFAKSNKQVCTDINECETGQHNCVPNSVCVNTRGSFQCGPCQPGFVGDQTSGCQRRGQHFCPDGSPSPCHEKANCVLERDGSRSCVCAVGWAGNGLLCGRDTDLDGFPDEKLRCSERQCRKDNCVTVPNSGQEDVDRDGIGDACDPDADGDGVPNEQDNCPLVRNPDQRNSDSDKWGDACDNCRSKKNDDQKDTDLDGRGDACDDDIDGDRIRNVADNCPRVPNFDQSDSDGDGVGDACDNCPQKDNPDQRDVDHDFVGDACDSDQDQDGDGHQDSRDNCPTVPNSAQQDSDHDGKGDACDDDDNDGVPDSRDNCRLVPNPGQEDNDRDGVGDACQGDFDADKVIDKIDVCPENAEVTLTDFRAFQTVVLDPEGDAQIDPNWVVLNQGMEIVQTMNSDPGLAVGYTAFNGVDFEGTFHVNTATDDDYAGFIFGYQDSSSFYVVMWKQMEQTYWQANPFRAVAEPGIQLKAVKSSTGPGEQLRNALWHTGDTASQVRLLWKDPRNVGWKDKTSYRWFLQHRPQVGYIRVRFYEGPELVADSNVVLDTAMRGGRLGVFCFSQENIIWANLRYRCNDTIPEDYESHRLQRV

Target: COMP DelD469 (mutant, mouse knock-in) (mouse (endogenous in mouse chondrocytes)) (UniProt Q9R0G6)
Experiment: non-reducing SDS-PAGE and Western blot; total protein lysates of isolated chondrocytes of 5-day-old mice, 4-12% gels, non-reduced against reduced (0.1 M DTT); oligomers assigned by apparent size

binding: binds
Substance: COMP DelD469 (mutant, mouse knock-in) (from UniProt Q9R0G6 20-755)
